1 substance from article PMC11929097, “Stabilized designs of the malaria adhesin protein PvRBP2b for use as a potential diagnostic for Plasmodium vivax [image fx2.gif]” (The Journal of Biological Chemistry, 2025) can be followed below.

Amino acid sequences for entries named in this document (tags omitted). Residues count along the entry.
UniProt A5K736, residues 169-470: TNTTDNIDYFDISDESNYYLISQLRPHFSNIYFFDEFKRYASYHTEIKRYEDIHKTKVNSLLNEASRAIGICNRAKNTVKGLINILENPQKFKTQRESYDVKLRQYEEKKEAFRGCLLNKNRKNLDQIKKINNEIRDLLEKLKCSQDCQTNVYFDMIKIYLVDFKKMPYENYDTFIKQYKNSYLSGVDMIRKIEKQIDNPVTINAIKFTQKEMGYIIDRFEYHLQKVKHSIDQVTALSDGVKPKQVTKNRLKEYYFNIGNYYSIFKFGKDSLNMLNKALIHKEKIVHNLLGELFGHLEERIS

No constants are given. Whether binding was seen depends on the method and setting.

The test addresses parental PvRBP2b_(169-470) (Plasmodium vivax reticulocyte-binding protein 2b, N-terminal domain) (Plasmodium vivax strain Salvador I) (UniProt A5K736). Kind of test: dynamic light scattering; 1 mg/ml protein, DynaPro plate reader III, regularization analysis; hydrodynamic radius compared with the theoretical molecular weight; both purified.

With “parental PvRBP2b_(169-470) (Plasmodium vivax reticulocyte-binding protein 2b, N-terminal domain) (from UniProt A5K736 169-470) (domain or fragment)”, the binding result is reported as “no binding (tested: 1 mg/ml)”.
